For one molecule, binding results are on record in paper doi:10.1101/2025.09.01.673436.

These are yes or no findings as the source states them, for the method shown. Binding seen in cells or lysates may run through a third protein. Some binding calls cover weakened binding; strength is not graded here. Tags and fused reporters may be left off the sequences shown.

In this test the target is EGFP-tagged full-length Drosophila Notch (Notch–EGFP), wild type (Drosophila) (UniProt P07207). Nature of the test: co-IP.

B1: luciferase-tagged Drosophila Notch LNR domain (LNR–Luciferase), wild type (domain or fragment, UniProt P07207 1465-1600)
chain: GSGNDRYAADLEQQRAMCDKRGCTEKQGNGICDSDCNTYACNFDGNDCSLGINPWANCTANECWNKFKNGKCNEECNNAACHYDGHDCERKLKSCDSLFDAYCQKHYGDGFCDYGCNNAECSWDGLDCENKTQSPV
Take B1: the binding entry is recorded as “binds”.
